From patent US20250221977A1, “NOVEL BENZOTHIOPHENE DERIVATIVE AND USE THEREOF AS BET INHIBITOR” (BENOBIO CO., LTD., priority 2022, published 2025)
At least one structure is not confirmed: it was looked up by name or label, or the drawing left a doubt.

Experiments:
BRD3(BD1) = test: Binding inhibitory test on BRD3 protein (AlphaScreen)
[1] = tested on: AsPC-1 cells, human pancreatic cancer cells; test: In vivo anticancer efficacy test, AsPC-1 xenograft; design: species or system male nude mice; settings: 35 days, FIG. 16
[2] = tested on: MYC and HEXIM1 expression in mouse-derived AML cell line; test: In vitro anticancer efficacy test on AML cell line (qRT PCR of MYC and HEXIM1); assay type: cell-based; settings: 1 μM, 6 hours

Compound: CNC(=O)CCN(Cc1ccc(C(F)F)cc1)C(=O)c1cc2c(OC)ccc(-c3ccc(=O)n(C)c3)c2s1 [BBC1115, N-[[4-(difluoromethyl)phenyl]methyl]-4-methoxy-N-[3-(methylamino)-3-oxo-propyl]-7-(1-methyl-6-oxo-3-pyridyl)benzothiophene-2-carboxamide]
- IC50 value for BRD3 BD1, times lower than Comparative Example 1 (BRD3(BD1); versus JQ1): approximately 5.71 times
- IC50 value for BRD3 BD1, times lower than Comparative Example 2 (BRD3(BD1); versus RVX-208): ~532.38 times
- anticancer efficacy (changes in tumor size) ([1]; AsPC-1 in male nude mice, 12, 5, and 25 mg/kg): significant anticancer efficacy depending on an administered dose
- tumor growth inhibition ability compared with JQ1 ([1]; AsPC-1 in male nude mice, JQ1 at 50 mg/kg): superior tumor growth inhibition ability to Comparative Example (JQ1)
- Myc at mRNA level ([2]; FIG. 15): effectively reduced
- expression of the gene HEXIM1 ([2]; compared to JQ1, FIG. 15): further inducing the expression
